For the experiment, the target named is T1, Erv1 with a C-terminal histidine tag (Erv1-His) (S. cerevisiae) (UniProt P27882).
T1 sequence: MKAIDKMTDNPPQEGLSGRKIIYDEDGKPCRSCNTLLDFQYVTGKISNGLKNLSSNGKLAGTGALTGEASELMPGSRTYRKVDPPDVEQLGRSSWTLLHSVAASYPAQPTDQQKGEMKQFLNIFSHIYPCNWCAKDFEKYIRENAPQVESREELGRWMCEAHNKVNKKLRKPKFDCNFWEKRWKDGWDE
Nature of the experiment: pull-down; mitochondria of His-tagged strains solubilized in 1% digitonin, 500 μg lysate incubated with Ni2+-agarose beads, washed, eluted, immunoblot; untagged WT strain as control.

No constants are given. Whether binding was seen depends on the method and setting. In cells and extracts the contact can be indirect. Some results given as binding are weak or reduced against the parent protein; the word gives no strength. Sequences can lack the tags named with a protein.

B1: Mia40 (protein, UniProt P36046 32-403)
chain: MASSPQFGRNSNQEKTAGFIMGILSMAGALYFIAPNRKPLFASRKVESDKTAEEELSSGGEQSPENEDDNNSKSDENGDDNDSKNDETEAGPQLGGDKIGASKVAEDGELVVLAEEDNKSSEDKDTDESKVSTKDDEQSNEDNATANNQKDENISSENSEENTSDKTLDNNAGSSEKKDPEHSDDEKSQQGQSDDKTTTEDNNGEEESSKKTVSDSENSAKQSESSDEEKEELRKQEEKQMGPTEEEVQHEGAYNPDTGEINWDCPCLGGMAHGPCGEEFKSAFSCFVYSEAEPKGIDCVEKFQHMQDCFRKYPEHYAEQLKETSDDEEPQDKVKVNTIESAPNVSSAKENAAKKAEQSDVKKEPLNEESKP
Take B1: the binding entry is listed as “binds”.

Values taken from article PMC8482512, “Aim32 is a dual-localized 2Fe-2S mitochondrial protein that functions in redox quality control” (The Journal of Biological Chemistry, 2021).
